Measurements from patent US20060234229 (published 2006).

Test: peptide synthesis
Details: whole synthesis

Sequence	purity (crude or final not stated) [%]
APDPFKQGVDTCGK	90
CAFKQGVDTCGK	30
GCAPDPFKQGVDTCGK	80
GCASLQGMDTCGK	60

Plain letter strings leave the end groups untold.
